{"source": "patent US9216955B2", "about": "“Polymorphic form of Fexofenadine hydrochloride, intermediates and process for its preparation” ([…] S.R.L., priority 2010, dated 2015)", "data": [{"smiles": "CC(C)(C(=O)O)c1ccc(C(O)CCCN2CCC(C(O)(c3ccccc3)c3ccccc3)CC2)cc1.Cl", "note": "(centres unmarked) [polymorph φ, 2-[4-[1-hydroxy-4-[4-(hydroxydiphenylmethyl)-1-piperidyl]-butyl]phenyl]-2-methylpropanoic acid]", "values": [{"measurement": "water absorption after extended exposure", "setting": "at least for one year at room temperature with relative humidity of 60-70%", "result": "does not absorb water"}, {"measurement": "stability of the solid form", "setting": "can be stored for a long period of time under normal storage conditions", "result": "stable"}]}]}
